Patent US9102588B2, “Fungicide N-cycloalkyl-N-bicyclic-carboxamide derivatives” (priority 2007, dated 2015)
Some results were stated once for a whole list of compounds, not compound by compound.

Columns and labels:
[1] = test system: Mycosphaerella graminicola; experiment: In vivo test on Mycosphaerella graminicola (wheat leaf spot); details: 500 ppm; wheat plants sprayed 24 hours before contamination; grading 21 to 28 days after contamination vs control plants
Sphaerotheca fuliginea = experiment: In vivo test on Sphaerotheca fuliginea (powdery mildew); details: 500 ppm; gherkin plants sprayed 24 hours before contamination; grading 12 days after contamination vs control plants
Puccinia recondita = experiment: In vivo test on Puccinia recondita (brown rust); details: 500 ppm; wheat plants sprayed 24 hours before contamination; grading 10 days after contamination vs control plants
Pyrenophora teres = experiment: In vivo test on Pyrenophora teres (barley net blotch); details: 500 ppm; barley plants sprayed 24 hours before contamination; grading 12 days after contamination vs control plants

Structure (SMILES) | good (at least 70%) or total protection (% of efficacy) [1] | good (at least 70%) or total protection (% of efficacy) (Sphaerotheca fuliginea) | good (at least 70%) or total protection (Puccinia recondita) | good (at least 70%) or total protection (Pyrenophora teres)
Cc1nc(C(F)(F)F)c(C(=O)N(C2CC2)C2CCc3cccc(Cl)c32)s1 (stereo not drawn) [Example 157] | at least 70% | – | – | –
COc1ccc2c(c1)C(N(C(=O)c1cn(C)nc1OC)C1CC1)CC2 (stereo not drawn) [Example 66] | at least 70% | at least 70% | – | –
CC1Cc2ccccc2C1N(C(=O)c1cn(C)nc1C(F)(F)F)C1CC1 (stereo not drawn) [Example 130] | at least 70% | at least 70% | – | –
Cn1cc(C(=O)N(C2CC2)C2CCOc3ccc(Cl)cc32)c(C(F)F)n1 (stereo not drawn) [Example 99] | – | – | at least 70% | –
Cc1nn(C)c(F)c1C(=O)N(C1CC1)C1CCCc2ccc(OCc3ccccc3)cc21 (stereo not drawn) [Example 35] | at least 70% | – | at least 70% | at least 70%
CCc1nn(C)c(F)c1C(=O)N(C1CC1)C1CCc2cc(Cl)ccc21 (stereo not drawn) [Example 55] | – | – | at least 70% | at least 70%
COc1nn(C)cc1C(=O)N(C1CC1)C1c2ccccc2CC1C (stereo not drawn) [Example 70] | at least 70% | at least 70% | – | –
Cn1cc(C(=O)N(C2CC2)C2CCOc3ccccc32)c(C(F)F)n1 (stereo not drawn) [Example 96] | – | at least 70% | at least 70% | –
Cc1nn(C)c(F)c1C(=O)N(C1CC1)C1CCCc2cccc(Br)c21 (stereo not drawn) [Example 30] | at least 70% | at least 70% | at least 70% | –
Cn1cc(C(=O)N(C2CC2)C2CCC(C)(C)c3ccccc32)c(C(F)(F)F)n1 (stereo not drawn) [Example 132] | at least 70% | – | – | –
Cn1cc(C(=O)N(C2CC2)C2CCCc3ccc(OCc4ccc(F)cc4F)cc32)c(C(F)F)n1 (stereo not drawn) [Example 103] | at least 70% | – | – | –
COc1nn(C)cc1C(=O)N(C1CC1)C1CCc2cccc(Cl)c21 (stereo not drawn) [Example 62] | at least 70% | at least 70% | – | at least 70%
Cc1nn(C)cc1C(=O)N(C1CC1)C1CCCc2ccc(Br)cc21 (stereo not drawn) [Example 116] | at least 70% | – | at least 70% | –
Cn1cc(C(=O)N(C2CC2)C2CCOc3ccccc32)c(C(F)(F)F)n1 (stereo not drawn) [Example 143] | at least 70% | – | – | –
Cn1cc(C(=O)N(C2CC2)C2CSCc3ccccc32)c(C(F)F)n1 (stereo not drawn) [Example 101] | – | – | at least 70% | –
COc1nn(C)cc1C(=O)N(C1CC1)C1CCCc2ccccc21 (stereo not drawn) [Example 60] | at least 70% | – | – | –
Cc1nn(C)c(F)c1C(=O)N(C1CC1)C1CCSc2ccccc21 (stereo not drawn) [Example 26] | – | – | at least 70% | –
Cc1nn(C)cc1C(=O)N(C1CC1)C1CCc2cc(Cl)ccc21 (stereo not drawn) [Example 115] | at least 70% | at least 70% | – | –
CCCCC1Cc2ccccc2C1N(C(=O)c1c(C)nn(C)c1F)C1CC1 (stereo not drawn) [Example 10] | at least 70% | – | at least 70% | at least 70%
Cn1nc(C(F)(F)F)c(C(=O)N(C2CC2)C2CCSc3ccccc32)c1F (stereo not drawn) [Example 50] | at least 70% | at least 70% | – | –
Cn1nc(C(F)(F)F)c(C(=O)N(C2CC2)C2CCOc3ccccc32)c1F (stereo not drawn) [Example 49] | at least 70% | at least 70% | – | at least 70%
Cc1nn(C)c(F)c1C(=O)N(C1CC1)C1CCCc2ccc(OC(C)C)cc21 (stereo not drawn) [Example 22] | at least 70% | at least 70% | at least 70% | –
COc1nn(C)cc1C(=O)N(C1CC1)C1CCSc2ccccc21 (stereo not drawn) [Example 68] | at least 70% | – | – | –
Cc1nn(C)c(F)c1C(=O)N(C1CC1)C1CCCc2ccc(-c3cccnc3)cc21 (stereo not drawn) [Example 34] | at least 70% | – | at least 70% | –
Cc1nn(C)c(F)c1C(=O)N(C1CC1)C1CCCc2cccnc21 (stereo not drawn) [Example 24] | at least 70% | at least 70% | – | –
Cc1cc(C(=O)N(C2CC2)C2CCc3cc(Cl)ccc32)c(C)o1 (stereo not drawn) [Example 149] | – | – | at least 70% | –
COc1nn(C)cc1C(=O)N(C1CC1)C1CCCc2c(C)cc(C)cc21 (stereo not drawn) [Example 59] | at least 70% | at least 70% | at least 70% | –
